Measurements published in patent US7229806B2, “Microbial conversion of glucose to para-hydroxystyrene” (E. I. du Pont de Nemours and Company, priority 2002, dated 2007).

Assay: Characterization of purified PDC enzymes (pHCA as substrate)
Format: biochemical
Details: PDC enzyme
Method: The reaction was initiated by the addition of 1.0 μL of enzyme to a 1.0 mL solution containing 25 mM phosphate buffer, pH 6.0, and 0.2 mM pHCA in a plastic, UV transparent cuvette. The reaction was then followed for 5 minutes spectrophotometrically at 315 nm at room temperature, using a molar extinction coefficient of […] for pHCA disappearance. The specific activity was expressed as micromoles of pHCA degraded per minute per milligram of protein.
The characteristics of the PDC enzymes isolated from L. plantarum and B. subtilis were obtained using standard spectrometric and electrophoretic techniques and are listed in Table 5.

B1: L. plantarum: para-hydroxycinnamic acid decarboxylase (pdc1) from L. plantarum, SEQ ID NO:4, expressed in E. coli and purified (protein, listed as Lactobacillus plantarum)
chain: MTKTFKTLDDFLGTHFIYTYDNGWEYEWYAKNDHTVDYRIHGGMVAGRWVTDQKADIVMLTEGIYKISWTEPTGTDVALDFMPNEKKLHGTIFFPKWVEEHPEITVTYQNEHIDLMEQSREKYATYPKLVVPEFANITYMGEGQNNEDVISEAPYKEMPNDIRNGKYLIKTTIV
  Temperature Optimum: 30 °C
  pH Optimum: 5.5–6.0

B2: B. subtilis: para-hydroxycinnamic acid decarboxylase (pdc2) from B. subtilis, SEQ ID NO:6, expressed in E. coli and purified (protein, listed as Bacillus subtilis)
chain: MENFIGSHMIYTYENGWEYEIYIKNDHTIDYRIHSGMVAGRWVRDQEVNIVKLTEGVYKVSWTEPTGTDVSLNFMPNEKRMHGIIFFPKWVHEHPEITVCYQNDHIDLMKESREKYETYPKYVVPEFAEITFLKNEGVDNEEVISKAPYEGMTDDIRAGRL
  Temperature Optimum: 40–45 °C
  pH Optimum: 5.0
